The supplement of paper PMC8728848
The other results are listed elsewhere or left out.

Experiments:
Experiment in all cases: glycan array binding signal (z-score within array); higher = stronger binding
Conditions in all cases: glycan notation: IUPAC condensed, linker removed
[1] = target: GlcNAc(b1-3)[GlcNAc(b1-6)]GalNAc
Method in brief: (§1)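 Glycan array data were curated from 3228 arrays in the Consortium for Functional Glycomics database and kept only where the protein sequence was available. Glycan names were converted to IUPAC-condensed notation, and columns mapping to the same glycan were averaged. The binding signal is a within-array Z-score, averaged across arrays of the same protein sequence at different concentrations or buffers and across linkers. Negative Z-scores can be read as non-binding.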

[2] = target: GlcNAc(b1-4)Gal(b1-4)GlcNAc
Method in brief: as §1

GlcNAc(b1-4)GlcNAc = target: GlcNAc(b1-4)GlcNAc
Method in brief: as §1

[3] = target: GlcNAc(b1-4)GlcNAc(b1-4)GlcNAc
Method in brief: as §1

[4] = target: GlcNAc(b1-4)GlcNAc(b1-4)GlcNAc(b1-4)GlcNAc(b1-4)GlcNAc
Method in brief: as §1

[5] = target: GlcNAc(b1-4)GlcNAc(b1-4)GlcNAc(b1-4)GlcNAc(b1-4)GlcNAc(b1-4)GlcNAc
Method in brief: as §1

[6] = target: GlcNAc(b1-4)[GlcNAc(b1-6)]GalNAc
Method in brief: as §1

[7] = target: GlcNAc(b1-6)Gal(b1-4)GlcNAc
Method in brief: as §1

GlcNAc(b1-6)GalNAc = target: GlcNAc(b1-6)GalNAc
Method in brief: as §1

GlcNAc3Prop(b1-4)GlcNAc = target: GlcNAc3Prop(b1-4)GlcNAc
Method in brief: as §1

[8] = target: GlcNAc6S(b1-3)Gal(b1-4)GlcNAc
Method in brief: as §1

Kdn(a2-3)Gal(b1-3)GalNAc = target: Kdn(a2-3)Gal(b1-3)GalNAc
Method in brief: as §1

Kdn(a2-3)Gal(b1-3)GlcNAc = target: Kdn(a2-3)Gal(b1-3)GlcNAc
Method in brief: as §1

Kdn(a2-3)Gal(b1-4)Glc = target: Kdn(a2-3)Gal(b1-4)Glc
Method in brief: as §1

Kdn(a2-3)Gal(b1-4)GlcNAc = target: Kdn(a2-3)Gal(b1-4)GlcNAc
Method in brief: as §1

[9] = target: Kdn(a2-3)Gal(b1-4)[Fuc(a1-3)]GlcNAc
Method in brief: as §1

Kdn(a2-6)Gal(b1-4)GlcNAc = target: Kdn(a2-6)Gal(b1-4)GlcNAc
Method in brief: as §1

[10] = target: Man(a1-2)Man(a1-2)Man(a1-3)Man
Method in brief: as §1

[11] = target: Man(a1-2)Man(a1-2)Man(a1-6)[Man(a1-3)]Man
Method in brief: as §1

Man(a1-2)Man(a1-3)Man = target: Man(a1-2)Man(a1-3)Man
Method in brief: as §1

[12] = target: Man(a1-2)Man(a1-3)[Man(a1-2)Man(a1-6)]Man
Method in brief: as §1

[13] = target: Man(a1-2)Man(a1-3)[Man(a1-2)Man(a1-6)]Man(a1-6)[Man(a1-2)Man(a1-2)Man(a1-3)]Man
Method in brief: as §1

[14] = target: Man(a1-2)Man(a1-3)[Man(a1-2)Man(a1-6)]Man(a1-6)[Man(a1-2)Man(a1-2)Man(a1-3)]Man(b1-4)GlcNAc(b1-4)GlcNAc
Method in brief: as §1

[15] = target: Man(a1-2)Man(a1-3)[Man(a1-6)]Man(a1-6)[Man(a1-2)Man(a1-3)]Man(b1-4)GlcNAc(b1-4)GlcNAc
Method in brief: as §1

[16] = target: Man(a1-2)Man(a1-6)[Man(a1-3)]Man(a1-6)[Man(a1-2)Man(a1-2)Man(a1-3)]Man
Method in brief: as §1

[17] = target: Man(a1-2)Man(a1-6)[Man(a1-3)]Man(a1-6)[Man(a1-2)Man(a1-2)Man(a1-3)]Man(b1-4)GlcNAc(b1-4)GlcNAc
Method in brief: as §1

Man(a1-3)[Man(a1-6)]Man = target: Man(a1-3)[Man(a1-6)]Man
Method in brief: as §1

[18] = target: Man(a1-3)[Man(a1-6)]Man(a1-6)[Man(a1-2)Man(a1-3)]Man(b1-4)GlcNAc(b1-4)GlcNAc
Method in brief: as §1

[19] = target: Man(a1-3)[Man(a1-6)]Man(a1-6)[Man(a1-3)]Man
Method in brief: as §1

[20] = target: Man(a1-3)[Man(a1-6)]Man(a1-6)[Man(a1-3)]Man(b1-4)GlcNAc(b1-4)GlcNAc
Method in brief: as §1

[21] = target: Man(a1-3)[Man(a1-6)]Man(b1-4)GlcNAc(b1-4)GlcNAc
Method in brief: as §1

Man(a1-6)Man = target: Man(a1-6)Man
Method in brief: as §1

Man(b1-4)GlcNAc = target: Man(b1-4)GlcNAc
Method in brief: as §1

Neu5Ac(a2-3)Gal = target: Neu5Ac(a2-3)Gal
Method in brief: as §1

[22] = target: Neu5Ac(a2-3)Gal(b1-3)GalNAc
Method in brief: as §1

[23] = target: Neu5Ac(a2-3)Gal(b1-3)GalNAc(b1-3)Gal(a1-4)Gal(b1-4)Glc
Method in brief: as §1

[24] = target: Neu5Ac(a2-3)Gal(b1-3)GalNAc(b1-4)[Neu5Ac(a2-3)]Gal(b1-4)Glc
Method in brief: as §1

[25] = target: Neu5Ac(a2-3)Gal(b1-3)GalNAc(b1-4)[Neu5Ac(a2-8)Neu5Ac(a2-3)]Gal(b1-4)Glc
Method in brief: as §1

B1: PGP3 (Chlamydia trachomatis), P0CE18 (protein)
chain: MGNSGFYLYNTQNCVFADNIKVGQMTEPLKDQQIILGTTSTPVAAKMTASDGISLTVSNNPSTNASITIGLDAEKAYQLILEKLGDQILGGIADTIVDSTVQDILDKITTDPSLGLLKAFNNFPITNKIQCNGLFTPRNIETLLGGTEIGKFTVTPKSSGSMFLVSADIIASRMEGGVVLALVREGDSKPYAISYGYSSGVPNLCSLRTRIINTGLTPTTYSLRVGGLESGVVWVNALSNGNDILGITNTSNVSFLEVIPQTNA
glycan array binding signal (z-score) [1]: -0.587
glycan array binding signal (z-score) [2]: -1.24
glycan array binding signal (z-score) (GlcNAc(b1-4)GlcNAc): 0.682
glycan array binding signal (z-score) [3]: 0.112
glycan array binding signal (z-score) [4]: 1.18
glycan array binding signal (z-score) [5]: 0.545
glycan array binding signal (z-score) [6]: -1.49
glycan array binding signal (z-score) [7]: -0.774
glycan array binding signal (z-score) (GlcNAc(b1-6)GalNAc): -0.584
glycan array binding signal (z-score) (GlcNAc3Prop(b1-4)GlcNAc): 0.228
glycan array binding signal (z-score) [8]: 0.037
glycan array binding signal (z-score) (Kdn(a2-3)Gal(b1-3)GalNAc): 0.412
glycan array binding signal (z-score) (Kdn(a2-3)Gal(b1-3)GlcNAc): -1.9
glycan array binding signal (z-score) (Kdn(a2-3)Gal(b1-4)Glc): 0.791
glycan array binding signal (z-score) (Kdn(a2-3)Gal(b1-4)GlcNAc): 1.53
glycan array binding signal (z-score) [9]: 0.816
glycan array binding signal (z-score) (Kdn(a2-6)Gal(b1-4)GlcNAc): 0.145
glycan array binding signal (z-score) [10]: -0.116
glycan array binding signal (z-score) [11]: -1.01
glycan array binding signal (z-score) (Man(a1-2)Man(a1-3)Man): -0.404
glycan array binding signal (z-score) [12]: 0.09
glycan array binding signal (z-score) [13]: 0.073
glycan array binding signal (z-score) [14]: 0.211
glycan array binding signal (z-score) [15]: -0.08
glycan array binding signal (z-score) [16]: 0.585
glycan array binding signal (z-score) [17]: 0.271
glycan array binding signal (z-score) (Man(a1-3)[Man(a1-6)]Man): -0.232
glycan array binding signal (z-score) [18]: -0.694
glycan array binding signal (z-score) [19]: 0.157
glycan array binding signal (z-score) [20]: 0.371
glycan array binding signal (z-score) [21]: -0.93
glycan array binding signal (z-score) (Man(a1-6)Man): 0.748
glycan array binding signal (z-score) (Man(b1-4)GlcNAc): 0.253
glycan array binding signal (z-score) (Neu5Ac(a2-3)Gal): 0.478
glycan array binding signal (z-score) [22]: 0.031
glycan array binding signal (z-score) [23]: -0.944
glycan array binding signal (z-score) [24]: -1.29
glycan array binding signal (z-score) [25]: 0.558
